# The list is a part of this screen's results and no random one: it gathers tests that were run many times, whatever their T/C, doses with no T/C, and many T/C values between a quarter and a half above the control. Other doses and runs of a compound stand elsewhere. T/C: endpoint of the treated group in % of that of the vehicle group. Some entries give survivors of the animals treated and no T/C: the source files T/C as zero there, which appears to mark a toxic dose or a test without result, not a measured value. Some survivor counts are full or nearly so, which does not show that the dose was tolerated: the source hardly ever lists a survival T/C far under the control, and the zero likely stands for such cases as well. Counts of survivors are from the toxicity check (mostly the fifth day) where no day follows; animals may have died later. Schedule codes are those of the source, read here as Q, the interval in days (D) or hours (H), X, the number of doses. Some schedules carry Z or #; the key to these is not given. Some entries hold several experiments; the results are listed from low to high.
# Test system: BDF1 mice, L1210 leukemia sc, survival T/C
# Experiment: NCI In Vivo Anticancer Drug Screen. Data for tumor model L1210 Leukemia (subcutaneous) in B6D2F1 (BDF1) mice
# Conditions: higher T/C = longer survival
# Experimental: The antitumor activity of compounds was measured in mice bearing transplantable tumors. Survival or tumor size were measured and the results are expressed as the measurement made in the treated group (T) divided by the measurement made in the vehicle treated control group (C). The tumor model used in this assay is L1210 Leukemia (subcutaneous) in B6D2F1 (BDF1) mice
# [1] = T/C endpoint: median survival time, dose: 3.0 mg/kg/injection, schedule: Q01DX Z (sc), vehicle: methylcellulose (MC)
# [2] = T/C endpoint: median survival time, dose: 5.0 mg/kg/injection, schedule: Q01DX Z (sc), vehicle: methylcellulose (MC)
# [3] = T/C endpoint: median survival time, dose: 8.4 mg/kg/injection, schedule: Q01DX Z (sc), vehicle: methylcellulose (MC)
# [4] = T/C endpoint: median survival time, dose: 14.0 mg/kg/injection, schedule: Q01DX Z (sc), vehicle: methylcellulose (MC)
# [5] = T/C endpoint: median survival time, dose: 39.0 mg/kg/injection, schedule: Q01DX Z (sc), vehicle: methylcellulose (MC)
# [6] = T/C endpoint: median survival time, dose: 23.0 mg/kg/injection, schedule: Q01DX Z (sc), vehicle: saline
# [7] = T/C endpoint: median survival time, dose: 39.0 mg/kg/injection, schedule: Q01DX Z (sc), vehicle: saline
# [8] = T/C endpoint: median survival time, dose: 65.0 mg/kg/injection, schedule: Q01DX Z (sc), vehicle: saline
# [9] = T/C endpoint: median survival time, dose: 108.0 mg/kg/injection, schedule: Q01DX Z (sc), vehicle: saline
# [10] = T/C endpoint: median survival time, dose: 180.0 mg/kg/injection, schedule: Q01DX Z (sc), vehicle: saline
# [11] = T/C endpoint: median survival time, dose: 5.0 mg/kg/injection, schedule: Q01DX Z (sc), vehicle: saline
# [12] = T/C endpoint: median survival time, dose: 65.0 mg/kg/injection, schedule: Q01DX Z (sc), vehicle: water
# [13] = T/C endpoint: median survival time, dose: 108.0 mg/kg/injection, schedule: Q01DX Z (sc), vehicle: water
# [14] = T/C endpoint: median survival time, dose: 180.0 mg/kg/injection, schedule: Q01DX Z (sc), vehicle: water
# [15] = T/C endpoint: median survival time, dose: 300.0 mg/kg/injection, schedule: Q01DX Z (sc), vehicle: water
compound,measurement,setting,value
CC(=O)Nc1ccc2nc3ccc(NC(C)=O)cc3[n+](-c3ccccc3)c2c1,survivor count,[1],2 of 8
same,survivor count,[2],3 of 8
same,survivor count,[3],5 of 8
same,survivor count,[4],5 of 8
same,survivor count,[5],5 of 8
same,survivor count,"T/C endpoint: median survival time, dose: 108.0 mg/kg/injection, schedule: Q01DX Z (sc), vehicle: methylcellulose (MC)",3 of 8
Cc1cc(N)c2cc(NC(=O)CCCCCCCCC(=O)Nc3ccc4nc(C)cc(N)c4c3)ccc2n1,survivor count,[6],4 of 10
same,survivor count,[7],4 of 10
same,survivor count,[8],2 of 10
same,survivor count,[9],2 of 10
same,survivor count,[10],1 of 10
COc1cc([C@@H]2c3cc4c(cc3[C@H](OC(=O)CCCC(=O)O)[C@H]3COC(=O)[C@H]23)OCO4)cc(OC)c1OC,survivor count,"T/C endpoint: median survival time, dose: 3.0 mg/kg/injection, schedule: Q01DX Z (sc), vehicle: water",6 of 10
CS(=O)(=O)Nc1ccc(Nc2c3ccccc3nc3cc(N)ccc23)cc1,survivor count,"T/C endpoint: mean survival time, dose: 4.0 mg/kg/injection, schedule: Q01DX009 (ip), vehicle: saline",8 of 10
same,survivor count,"T/C endpoint: mean survival time, dose: 8.0 mg/kg/injection, schedule: Q01DX009 (ip), vehicle: saline",8 of 10
C=CC(CO)N1CC1 (stereo not drawn),survivor count,"T/C endpoint: median survival time, dose: 3.0 mg/kg/injection, schedule: Q01DX Z (sc), vehicle: saline",3 of 10
same,survivor count,"T/C endpoint: median survival time, dose: 4.7 mg/kg/injection, schedule: Q01DX Z (sc), vehicle: saline",6 of 10
same,survivor count,[11],2 of 10
same,survivor count,"T/C endpoint: median survival time, dose: 8.4 mg/kg/injection, schedule: Q01DX Z (sc), vehicle: saline",2 of 10 and 5 of 10
same,survivor count,"T/C endpoint: median survival time, dose: 13.0 mg/kg/injection, schedule: Q01DX Z (sc), vehicle: saline",2 of 10
same,survivor count,"T/C endpoint: median survival time, dose: 14.0 mg/kg/injection, schedule: Q01DX Z (sc), vehicle: saline",1 of 10 and 6 of 10
same,survivor count,"T/C endpoint: median survival time, dose: 21.6 mg/kg/injection, schedule: Q01DX Z (sc), vehicle: saline",4 of 10
same,survivor count,[6],6 of 10
same,survivor count,[7],2 of 10
same,survivor count,"T/C endpoint: median survival time, dose: 60.0 mg/kg/injection, schedule: Q01DX Z (sc), vehicle: saline",0 of 10
same,survivor count,[8],0 of 10
same,survivor count,"T/C endpoint: median survival time, dose: 100.0 mg/kg/injection, schedule: Q01DX Z (sc), vehicle: saline",0 of 10
same,survivor count,"T/C endpoint: median survival time, dose: 180.0 mg/kg/injection, schedule: Q01DX001 (sc), vehicle: saline",0 of 10
same,survivor count,"T/C endpoint: median survival time, dose: 180.0 mg/kg/injection, schedule: Q## X Z (sc), vehicle: saline",0 of 10
COc1ccc2nc3cc(Cl)ccc3c(NCCN(CCCl)CCCl)c2c1,survivor count,"T/C endpoint: median survival time, dose: 0.65 mg/kg/injection, schedule: Q01DX Z (sc), vehicle: methylcellulose (MC)",4 of 10
same,survivor count,"T/C endpoint: median survival time, dose: 0.65 mg/kg/injection, schedule: Q01DX Z (sc), vehicle: olive oil, sesame oil, peanut oil",4 of 10
same,survivor count,"T/C endpoint: median survival time, dose: 1.08 mg/kg/injection, schedule: Q01DX Z (sc), vehicle: methylcellulose (MC)",3 of 10 and 5 of 10
same,survivor count,"T/C endpoint: median survival time, dose: 1.08 mg/kg/injection, schedule: Q01DX Z (sc), vehicle: olive oil, sesame oil, peanut oil",2 of 10
same,survivor count,"T/C endpoint: median survival time, dose: 1.8 mg/kg/injection, schedule: Q01DX Z (sc), vehicle: methylcellulose (MC)",3 of 10 and 4 of 10
same,survivor count,"T/C endpoint: median survival time, dose: 1.8 mg/kg/injection, schedule: Q01DX Z (sc), vehicle: olive oil, sesame oil, peanut oil",6 of 10
same,survivor count,[1],4 of 10 and 6 of 10
same,survivor count,"T/C endpoint: median survival time, dose: 3.0 mg/kg/injection, schedule: Q01DX Z (sc), vehicle: olive oil, sesame oil, peanut oil",2 of 10
same,survivor count,[2],3 of 10 and 5 of 10
same,survivor count,"T/C endpoint: median survival time, dose: 5.0 mg/kg/injection, schedule: Q01DX Z (sc), vehicle: olive oil, sesame oil, peanut oil",2 of 10
same,survivor count,[3],1 of 10 and 5 of 10
same,survivor count,"T/C endpoint: median survival time, dose: 8.4 mg/kg/injection, schedule: Q01DX Z (sc), vehicle: olive oil, sesame oil, peanut oil",4 of 10
same,survivor count,[4],2 of 10 and 6 of 10
same,survivor count,"T/C endpoint: median survival time, dose: 14.0 mg/kg/injection, schedule: Q01DX Z (sc), vehicle: olive oil, sesame oil, peanut oil",2 of 10
same,survivor count,"T/C endpoint: median survival time, dose: 23.0 mg/kg/injection, schedule: Q01DX Z (sc), vehicle: methylcellulose (MC)",2 of 10 and 5 of 10
same,survivor count,"T/C endpoint: median survival time, dose: 23.0 mg/kg/injection, schedule: Q01DX Z (sc), vehicle: olive oil, sesame oil, peanut oil",3 of 10
same,survivor count,[5],3 of 10
same,survivor count,"T/C endpoint: median survival time, dose: 39.0 mg/kg/injection, schedule: Q01DX Z (sc), vehicle: olive oil, sesame oil, peanut oil",2 of 10
NN=C(N)N,survivor count,"T/C endpoint: median survival time, dose: 23.0 mg/kg/injection, schedule: Q01DX Z (sc), vehicle: water",3 of 10
same,survivor count,"T/C endpoint: median survival time, dose: 39.0 mg/kg/injection, schedule: Q01DX Z (sc), vehicle: water",3 of 10
same,survivor count,[12],5 of 10
same,survivor count,[13],3 of 10
same,survivor count,[14],3 of 10
same,survivor count,[15],3 of 10
same,survivor count,"T/C endpoint: median survival time, dose: 500.0 mg/kg/injection, schedule: Q01DX Z (sc), vehicle: water",4 of 10
same,survivor count,"T/C endpoint: median survival time, dose: 833.0 mg/kg/injection, schedule: Q01DX Z (sc), vehicle: water",4 of 10
C[n+]1c2ccccc2c(Nc2ccc(NS(=O)(=O)CCCCN=C(N)N)cc2)c2ccc(N)cc21,survivor count,"T/C endpoint: median survival time, dose: 24.0 mg/kg/injection, schedule: Q01DX009 (ip), vehicle: water",5 of 10
Nc1nc2c(ncn2C2CC(O)C(CO)O2)c(=O)[nH]1 (stereo not drawn),survivor count,"T/C endpoint: median survival time, dose: 130.0 mg/kg/injection, schedule: Q01DX Z (sc), vehicle: water",2 of 8
same,survivor count,"T/C endpoint: median survival time, dose: 216.0 mg/kg/injection, schedule: Q01DX Z (sc), vehicle: water",0 of 8
same,survivor count,"T/C endpoint: median survival time, dose: 360.0 mg/kg/injection, schedule: Q01DX Z (sc), vehicle: water",2 of 8
same,survivor count,"T/C endpoint: median survival time, dose: 600.0 mg/kg/injection, schedule: Q01DX Z (sc), vehicle: water",0 of 8
same,survivor count,"T/C endpoint: median survival time, dose: 1000.0 mg/kg/injection, schedule: Q01DX Z (sc), vehicle: water",0 of 8
O=C(Nc1ccc(C2=NCCN2)cc1)c1ccc(C(=O)Nc2ccc(C3=NCCN3)cc2)c([N+](=O)[O-])c1,survivor count,[11],6 of 10
same,survivor count,[6],6 of 10
same,survivor count,[12],6 of 10
same,survivor count,"T/C endpoint: median survival time, dose: 108.0 mg/kg/injection, schedule: Q01DX Z (ip), vehicle: water",0 of 10
same,survivor count,[9],2 of 10
same,survivor count,[13],5 of 10
same,survivor count,"T/C endpoint: median survival time, dose: 180.0 mg/kg/injection, schedule: Q01DX Z (ip), vehicle: water",0 of 10
same,survivor count,[10],0 of 10
same,survivor count,[14],0 of 10
same,survivor count,"T/C endpoint: median survival time, dose: 300.0 mg/kg/injection, schedule: Q01DX Z (sc), vehicle: saline",0 of 10
same,survivor count,[15],0 of 10
CC[n+]1c(-c2ccccc2)c2cc(N)ccc2c2ccc(N)cc21,survivor count,"T/C endpoint: median survival time, dose: 180.0 mg/kg/injection, schedule: Q01DX Z (sc), vehicle: carboxymethylcellulose (CMC)",1 of 8
same,survivor count,"T/C endpoint: median survival time, dose: 300.0 mg/kg/injection, schedule: Q01DX Z (sc), vehicle: carboxymethylcellulose (CMC)",0 of 8

# Reference: PubChem BioAssay AID250 (DTP/NCI, 2004)
